{
  "sequences": {"note": "The chains behind the UniProt entries cited, without tags or fusion partners. Residues count along the entry.", "UniProt P02769, 25-607": "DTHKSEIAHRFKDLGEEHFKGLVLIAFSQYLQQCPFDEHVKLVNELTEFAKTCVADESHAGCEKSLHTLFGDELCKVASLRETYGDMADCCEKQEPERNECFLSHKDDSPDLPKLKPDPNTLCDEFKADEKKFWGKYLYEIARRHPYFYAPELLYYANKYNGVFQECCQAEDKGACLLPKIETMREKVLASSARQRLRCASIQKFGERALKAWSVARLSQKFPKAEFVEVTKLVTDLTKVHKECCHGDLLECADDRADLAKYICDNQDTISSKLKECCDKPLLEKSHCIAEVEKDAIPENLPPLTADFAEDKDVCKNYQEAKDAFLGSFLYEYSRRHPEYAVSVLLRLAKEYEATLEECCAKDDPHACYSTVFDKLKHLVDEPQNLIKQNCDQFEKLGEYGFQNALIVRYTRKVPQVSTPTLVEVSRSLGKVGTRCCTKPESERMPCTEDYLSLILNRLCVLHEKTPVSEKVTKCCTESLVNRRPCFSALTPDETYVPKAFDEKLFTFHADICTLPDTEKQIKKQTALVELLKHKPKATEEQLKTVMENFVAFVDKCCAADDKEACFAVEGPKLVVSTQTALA"},
  "source": "paper PMC12806343",
  "key": {"[1]": {"tested_on": "myoglobin", "assay": "EMSA (TBE-PAGE)", "conditions": "5' amine (NH2), binding buffer composition not given, commercial protein, folded or branched DNA"}, "[2]": {"target": "bovine serum albumin (BSA) (Bos taurus) (UniProt P02769)", "assay": "EMSA (TBE-PAGE)", "conditions": "5' amine (NH2), binding buffer composition not given, commercial protein, folded or branched DNA"}},
  "note": "A negative result means that nothing was seen under these conditions. For some assays here: For at least one entry, the source does not settle the construct or the ends of the probe.",
  "data": [
    {"sequence": "GTACCTGCTCTCCGCGCGAAGCACGCCAGGGACT [Tr-Apt13]", "values": [
      {"measurement": "binding result", "setting": "[1]", "value": "no binding"},
      {"measurement": "binding result", "setting": "[2]", "value": "no binding"}
    ]}
  ]
}
